For at least one entry, the source does not settle the construct or the ends of the probe. For some assays here: A weaker result is weaker than the reference pair of the same experiment. For some assays here: At least one verdict was read from the data and is not stated in words by the source.
What was measured:
hnRNP A1 [1] = molecular target: hnRNP A1 (UniProt P09651); assay: FRET; conditions: FRET: 50 mM Na cacodylate pH 5.5 (hras-2Y pH 6.5), 50 mM KCl, recombinant protein, label: 5' ATTO-488, 3' TAMRA, folded or branched DNA
hnRNP A1 [2] = molecular target: hnRNP A1 (UniProt P09651); assay: EMSA; conditions: EMSA: 50 mM Tris-acetate pH 5.5, 50 mM KCl, 1 mM DTT, 8% glycerol, 5 mM NaF, 1 mM Na3VO4, 2.5 ng/ul salmon sperm DNA, 20 C, competition at 37 C with 1 mM EDTA, recombinant protein

Protein sequences, listed by entry. Tags and fused reporters are not part of them. Lines headed by an entry give the natural chain unless they say otherwise; changes in a name come on top.
UniProt P09651: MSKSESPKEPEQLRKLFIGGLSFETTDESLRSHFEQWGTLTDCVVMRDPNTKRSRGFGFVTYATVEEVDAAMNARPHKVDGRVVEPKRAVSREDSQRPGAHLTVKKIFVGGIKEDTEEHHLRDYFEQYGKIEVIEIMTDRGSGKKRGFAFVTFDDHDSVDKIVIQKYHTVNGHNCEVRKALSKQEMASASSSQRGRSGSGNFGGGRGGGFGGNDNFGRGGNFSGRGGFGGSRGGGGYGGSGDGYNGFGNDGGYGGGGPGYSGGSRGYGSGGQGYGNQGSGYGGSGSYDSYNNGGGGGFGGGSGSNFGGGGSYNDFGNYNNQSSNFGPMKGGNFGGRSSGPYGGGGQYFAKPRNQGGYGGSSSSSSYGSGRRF

CGCGCCCCCGCCCCCGCCCCGCCCC [A-hras-2Y-T]
binding result (hnRNP A1 [1]; pH 6.5, melting profile abrogated): binds

CGCTCGTGCTCTGCGCTCGCAACTCGA [hras-1Y(m)]
binding result (hnRNP A1 [2]; pH 5.5, single-stranded DNA): binds more weakly

CGCCGCCCGTGCCCTGCGCCCGCAACCCGAGC [A-hras-1Y-T]
binding result (hnRNP A1 [1]; pH 5.5, energy transfer 0.77 to 0.18 at r = 7 (unfolding)): binds

TTTTTTTCGCCCGTGCCCGTCGCCCGCAACCCGATTTTTTT [hras-1Y-dy781]
binding result (hnRNP A1 [2]; pH 5.5, 0 C, only 1:1 complex, label: 5' Dy-781, folded or branched DNA): binds | binding result (hnRNP A1 [2]; pH 5.5, 37 C, 1:1 at 50-fold, 1:2 at 100-fold protein, label: 5' Dy-781, folded or branched DNA): binds
